Results as given in patent US10716850B2, “Anti-inflammatory factor retentate, method of isolation, and use” (Wellin, Inc., priority 2014, dated 2020).
At least one compound was matched to its structure with a doubt left.

Columns and labels:
[1] = system: neutrophil migration into the pleural cavity; experiment: pleural neutrophil migration inhibition assay; type: in vivo, rat
Experimental: Neutrophil Migration Inhibition Assay. MAIF anti-inflammatory activity was determined in a pleural neutrophil migration inhibition assay. Female, white laboratory rats weighing 120 to 150 g were injected intrapleurally with 1.0 ml of 1% kappa carrageenin in PBS to induce neutrophil migration into the pleural cavity. Immediately, the rats were injected intraperitoneally with 0.5 ml doses of […] samples in PBS. PBS was used as a control. After four hours, the rats were sacrificed, pleural exudates were collected, and the emigrated neutrophils were counted.

[2] = system: circulating neutrophils and lymphocytes; experiment: effect on circulating leucocytes; type: in vivo, rat; settings: other anti-inflammatory/immunomodulatory agents
Experimental: Two experiments were done. In the first, the MAIF preparation was administered intravenously at a dose of 40 mg/rat to one group of 6 animals and a control group was injected with saline. Blood samples were obtained at baseline, 1, 4, and 24 hours after treatment.
A further dose-response study was carried out in which a group of rats were injected intravenously with saline, 5, 10 or 20 mg of the MAIF preparation. Blood from each rat had been taken 7 days previously to provide baseline values and was taken again 4 hours after the injection of MAIF. Included on the graph are the results obtained from the sample taken 4 hours after the administration of 40 mg the MAIF preparation (see FIG. 31).

C[C@@H]1C[C@H]2[C@@H]3CCC4=CC(=O)C=C[C@]4(C)[C@@]3(F)[C@@H](O)C[C@]2(C)[C@@]1(O)C(=O)CO [dexamethasone]
dose range of activity in the neutrophil assay ([1]; compared together with Peak 12): active in the high microgram to milligram range

C[C@H]1C[C@@H]2[C@H]([C@@H](O)C[C@@]3(C)[C@H]2CC[C@]3(O)C(=O)CO)[C@@]2(C)C=CC(=O)C=C12 [methylprednisolone]
effect on circulating leucocytes in the rat [2]: causes a change in the lymphocyte/neutrophil ratio analogous to that seen with MAIF

CC(=O)N[C@H]1[C@H]([C@H](O)[C@H](O)CO)OC(O)(C(=O)O)C[C@@H]1O (stereo partly drawn) [sialic acid]
inhibitory activity on the migration of rat neutrophils ([1]; in the doses tested): Neither the sialic acid nor the orotic acid exhibited any inhibitory activity
